Values from PubChem BioAssay AID652272 (Drosophila RNAi Screening Center, 2013)
In all, the deposit lists about 21,000 reagents; this is an unselected part of those that have a named target and a result. Over the whole deposit, 503 (2.4%) are marked active. 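Raw plate light values, not normalised; calls rest on replicate z-scores that were not deposited; hits include reporter decreases as well as increases.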 Unmarked entries are inactive. The numbers tell different reagents against one gene apart. Reagent sequences are not shown. Not given: the amount of reagent, the time to read-out.

Assay: 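Finding fly genes that regulate Hedgehog signal transduction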 (primary screen)
System: Drosophila clone 8 (Cl8) cells
Reagent: long dsRNA against Drosophila genes
Detection: 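Firefly light from a Hedgehog-responsive ptc promoter reporter and Renilla reference light, both read on a plate reader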
Reading the numbers: firefly Hh reporter signal: higher = more ptc reporter light; Renilla reference signal: higher = more Renilla control light
Active means: 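Hit when the z-score averaged over two replicates is under -2 or over +3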
Meaning of the calls: active = hit: reporter lowered or raised; inactive = not a hit

Creld | firefly Hh reporter signal, replicate 1 = 80629; firefly Hh reporter signal, replicate 2 = 77937; Renilla reference signal, replicate 1 = 1751; Renilla reference signal, replicate 2 = 1908
btz | firefly Hh reporter signal, replicate 1 = 1.23e5; firefly Hh reporter signal, replicate 2 = 90656; Renilla reference signal, replicate 1 = 2044; Renilla reference signal, replicate 2 = 1805
CG31288 | firefly Hh reporter signal, replicate 1 = 5.96e5; firefly Hh reporter signal, replicate 2 = 1.58e5; Renilla reference signal, replicate 1 = 29610; Renilla reference signal, replicate 2 = 4337
IntS2 | firefly Hh reporter signal, replicate 1 = 1.15e5; firefly Hh reporter signal, replicate 2 = 1.42e5; Renilla reference signal, replicate 1 = 2979; Renilla reference signal, replicate 2 = 3272
Gr22e | firefly Hh reporter signal, replicate 1 = 5.00e5; firefly Hh reporter signal, replicate 2 = 2.55e5; Renilla reference signal, replicate 1 = 22464; Renilla reference signal, replicate 2 = 5882
eag #1 | firefly Hh reporter signal, replicate 1 = 5.59e5; firefly Hh reporter signal, replicate 2 = 1.88e5; Renilla reference signal, replicate 1 = 35445; Renilla reference signal, replicate 2 = 4209
eag #2 | firefly Hh reporter signal, replicate 1 = 65866; firefly Hh reporter signal, replicate 2 = 1.35e5; Renilla reference signal, replicate 1 = 1782; Renilla reference signal, replicate 2 = 6244

2 consecutive entries already listed:
IntS2 | firefly Hh reporter signal, replicate 1 = 1.15e5; firefly Hh reporter signal, replicate 2 = 1.42e5; Renilla reference signal, replicate 1 = 2979; Renilla reference signal, replicate 2 = 3272
Gr22e | firefly Hh reporter signal, replicate 1 = 5.00e5; firefly Hh reporter signal, replicate 2 = 2.55e5; Renilla reference signal, replicate 1 = 22464; Renilla reference signal, replicate 2 = 5882

Next entries:
CG9018 | firefly Hh reporter signal, replicate 1 = 95287; firefly Hh reporter signal, replicate 2 = 36525; Renilla reference signal, replicate 1 = 3001; Renilla reference signal, replicate 2 = 3382
CG10911 | firefly Hh reporter signal, replicate 1 = 80860; firefly Hh reporter signal, replicate 2 = 86880; Renilla reference signal, replicate 1 = 1938; Renilla reference signal, replicate 2 = 6081
CG13369 | firefly Hh reporter signal, replicate 1 = 63642; firefly Hh reporter signal, replicate 2 = 1.75e5; Renilla reference signal, replicate 1 = 3014; Renilla reference signal, replicate 2 = 9974
CG3906 | firefly Hh reporter signal, replicate 1 = 73028; firefly Hh reporter signal, replicate 2 = 62180; Renilla reference signal, replicate 1 = 3090; Renilla reference signal, replicate 2 = 2448
CG7601 | firefly Hh reporter signal, replicate 1 = 83660; firefly Hh reporter signal, replicate 2 = 1.17e5; Renilla reference signal, replicate 1 = 1840; Renilla reference signal, replicate 2 = 2889
TwdlB | firefly Hh reporter signal, replicate 1 = 93209; firefly Hh reporter signal, replicate 2 = 1.09e5; Renilla reference signal, replicate 1 = 1804; Renilla reference signal, replicate 2 = 2282
CG17440 | firefly Hh reporter signal, replicate 1 = 83317; firefly Hh reporter signal, replicate 2 = 2.39e5; Renilla reference signal, replicate 1 = 2164; Renilla reference signal, replicate 2 = 8906
